Experimental data from patent publication US20040209808A1 (published 2004).
These are yes or no findings as the source states them, for the method shown. Some results given as binding are weak or reduced against the parent protein; the word gives no strength.

By UniProt entry, the sequences of proteins in these tests, tags left out. Where a name states a change or a piece, a line headed by the entry shows the natural chain unless it says otherwise.
UniProt Q9H1C0: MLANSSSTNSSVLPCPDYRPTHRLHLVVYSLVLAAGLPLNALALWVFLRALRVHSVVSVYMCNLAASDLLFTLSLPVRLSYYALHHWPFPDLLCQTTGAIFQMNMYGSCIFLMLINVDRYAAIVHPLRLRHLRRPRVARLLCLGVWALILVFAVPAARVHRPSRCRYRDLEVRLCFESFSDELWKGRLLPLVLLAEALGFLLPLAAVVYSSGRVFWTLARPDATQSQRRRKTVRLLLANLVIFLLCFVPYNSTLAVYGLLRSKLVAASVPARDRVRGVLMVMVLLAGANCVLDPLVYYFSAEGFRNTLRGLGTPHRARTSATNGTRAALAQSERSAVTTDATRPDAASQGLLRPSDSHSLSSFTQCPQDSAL

Molecular target: T1, HGPRBMY3 (human, UniProt Q9H1C0 1-372)
T1 construct: on CHO-NFAT/Galpha15 cells for the reporter assay; also called GPCR19; GPR92; not shown: its amino
Experiment: cell-based phage-display panning on CHO-K1 cells transfected with HGPRBMY3; sequencing of eluted phage
Experimental: On the day of panning, growth medium was discarded and cells were washed with 10 ml PBS by allowing the buffer to flow over the cells. The PBS was removed and 10 ml Tris-EDTA detaching buffer (Gibco Cat. # 13150-016; no trypsin) was added for 2 min. Plates were tapped and/or pipetted up and down to detach cells. This was done quickly to minimize the exposure of the cells to this reagent. Cells were pelleted by centrifugation at 3K, and then washed with 20 ml PBS. Cells were resuspended cells in PBS with 2% milk blocking agent plus protease inhibitor (EDTA-free; Roche Cat. # 1 873 580). For each library, cell suspensions of ˜500 μl were used. Cells were blocked for 30-60 min with gentle rocking at room temperature. The integrin-coated wells were washed 3×in PBST, then blocked with 2% BSA in PBS for 30 min or more. To preadsorb against integrin, input phage was added to the integrin-coated wells, and incubated for 30 min or more.
At this stage, the blocked parental cells were divided into the required number of aliquots (500 μl aliquot/library). The phage supernatants were added from the integrin-preadsorption step. Preadsorption against the parental cells was carried out for 30 min or more with gentle rocking. […]
Standard procedures were used. […] Colonies were grown in liquid medium and analyzed by standard sequencing procedures.

binding	Binder
binds	KLWELYPTVPAG [SEQ ID NO 39]
binds	KLWELYPTVPAG [SEQ ID NO 44]
